PubChem BioAssay AID743454, Peter MacCallum Cancer Centre, 2014
In all, the deposit lists about 18,000 reagents; shown is a random part of them. 450 of all reagents (2.5%) were called active. 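Single biological run; no consistent viability z cut-off exists, so the class columns, not z-scores, define the calls.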 Unmarked entries are inactive. Reagents against one gene are numbered here.

Purpose: 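Knock-downs lowering viability or raising caspase 3/7 activity in vorinostat-treated resistant cells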 (primary screen)
Cells: human HCT116-VR colon cancer cells, selected for vorinostat resistance
Reagent: siRNA pool against human genes, 40 nM siRNA pool
Timing: vorinostat for 24 h, read-out about 72 h after transfection
Treatment: vorinostat at 2.5 µM final
Measurement: 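Two measures, CellTiter-Fluor viability and luminescent caspase 3/7 activity, each as fold change against same-plate mock wells, mean of duplicates, then screen-wide robust z-score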
Direction: viability robust z-score: higher = more viable cells than screen typical; caspase robust z-score: higher = more caspase 3/7 activity than screen typical
Call rule: 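Hits are knock-downs in viability class RV1/RV2 or caspase class CA1/CA2, excluding ones that killed cells in the no-drug cell-count arm; hits then retested with single siRNAs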

no.	Gene	reagent	viability hit class	caspase hit class	viability robust z-score	caspase robust z-score
1	WSCD2 (GeneID 9671)	1	no change	no change	-0.06	-0.16
2	PSG7 (GeneID 5676)	1	no change	no change	0.86	0.4
3	FAM181B (GeneID 220382)	1	no change	no change	-0.22	-0.77
4	AGGF1 (GeneID 55109)	1	no change	no change	-0.78	-1.42
5	GMEB2 (GeneID 26205)	1	no change	no change	0.99	0.04
6	OR5F1 (GeneID 338674)	1	no change	no change	0.85	-0.1
7	RNF144B (GeneID 255488)	1	no change	no change	-1.38	-0.5
8	COL12A1 (GeneID 1303)	1	no change	no change	1.7	-0.24
9	GFOD1 (GeneID 54438)	1	no change	no change	0.22	0.95
10	GFOD1 (GeneID 54438)	2	no change	no change	0.1	-1.27
11	NCKAP1L (GeneID 3071)	1	no change	no change	0.09	-1
12	INTU (GeneID 27152)	1	no change	no change	0.33	-0.53
13	COL25A1 (GeneID 84570)	1	no change	no change	-0.14	0.11
14	GCC1 (GeneID 79571)	1	no change	no change	0.52	-1.15
15	PDK1 (GeneID 5163)	1	no change	no change	0.86	-0.4
16	NSD2 (GeneID 7468)	1	no change	no change	-1.06	-0.39
17	PGAP2 (GeneID 27315)	1	no change	no change	-0.3	-1
18	BSPRY (GeneID 54836)	1	no change	no change	0.26	-0.85
19	PHLDB2 (GeneID 90102)	1	no change	no change	0.2	-0.57
20	CAVIN3 (GeneID 112464)	1	no change	no change	-0.25	3.89
21	PTX4 (GeneID 390667)	1	no change	no change	0.94	-0.6
22	AWAT2 (GeneID 158835)	1	no change	no change	1.1	-0.22
23	GRK7 (GeneID 131890)	1	no change	no change	-0.58	-0.89
24	GATM (GeneID 2628)	1	no change	no change	-2.58	-0.08
25	MPLKIP (GeneID 136647)	1	no change	no change	-1.49	2.56
26	LTK (GeneID 4058)	1	no change	no change	0.06	1.1
27	BDNF (GeneID 627)	1	no change	no change	0.3	-1.04
28	GRTP1 (GeneID 79774)	1	no change	no change	-0.15	-0.68
29	GAL3ST2 (GeneID 64090)	1	no change	no change	-0.84	3.2
30	XKR8 (GeneID 55113)	1	no change	no change	-0.08	2.08
31	ZIC2 (GeneID 7546)	1	no change	no change	1	-1.25
32	RNF43 (GeneID 54894)	1	no change	no change	-0.23	3.27
33	ZNF568 (GeneID 374900)	1	no change	no change	1.21	-0.27

Next part; the last 3 above are carried over.
no.	Gene	reagent	viability hit class	caspase hit class	viability robust z-score	caspase robust z-score
31	ZIC2 (GeneID 7546)	1	no change	no change	1	-1.25
32	RNF43 (GeneID 54894)	1	no change	no change	-0.23	3.27
33	ZNF568 (GeneID 374900)	1	no change	no change	1.21	-0.27
34	TYW3 (GeneID 127253)	1	no change	no change	-0.8	-0.96
35	HSD17B13 (GeneID 345275)	1	no change	no change	1.48	0.25
36	CCDC24 (GeneID 149473)	1	no change	no change	-0.28	0.96
37	RNF141 (GeneID 50862)	1	no change	no change	-0.54	-0.32
38	ARHGAP44 (GeneID 9912)	1	no change	no change	0.04	2.15
39	LRRC37A3 (GeneID 374819)	1	no change	no change	1.52	-0.68
40	SLC11A1 (GeneID 6556)	1	no change	no change	0.14	0.18
41	KHSRP (GeneID 8570)	1	no change	no change	-1.82	3.86
42	OR8D1 (GeneID 283159)	1	no change	no change	0.42	0.12
43	DUSP21 (GeneID 63904)	1	no change	no change	0.16	-0.06
44	ERCC6 (GeneID 2074)	1	no change	no change	-0.77	2.28
45	MYBPH (GeneID 4608)	1	no change	no change	-0.39	1.52
46	PRR35 (GeneID 146325)	1	no change	no change	-1.08	3.48
47	GUCY2D (GeneID 3000)	1	no change (active)	CA2 (caspase activation)	-4.49	5.8
48	TMEM150A (GeneID 129303)	1	no change	no change	1.12	-0.18
49	CALHM2 (GeneID 51063)	1	no change	no change	0.28	-0.68
50	ZKSCAN4 (GeneID 387032)	1	no change	no change	0.34	-0.44
51	ZBTB41 (GeneID 360023)	1	no change	no change	1.02	-0.56
52	DLG2 (GeneID 1740)	1	no change	no change	0.39	-0.44
53	PTTG1IP (GeneID 754)	1	no change	no change	0.3	-0.66
54	MPRIP (GeneID 23164)	1	no change	no change	0.18	-0.44
55	DENND10 (GeneID 404636)	1	no change	no change	1.79	0.14
56	XDH (GeneID 7498)	1	no change	no change	-1.45	0.28
57	PCDHA8 (GeneID 56140)	1	no change	no change	1.73	-0.34
58	SACK1G (GeneID 644815)	1	no change	no change	0.06	-0.24
59	WNT2B (GeneID 7482)	1	no change	no change	1.73	-0.06
60	MIR1915HG (GeneID 399726)	1	no change	no change	0.42	0.06
61	NBPF14 (GeneID 25832)	1	no change	no change	-0.5	-0.88
62	GID4 (GeneID 79018)	1	no change	no change	-0.4	1.78
63	DCAF5 (GeneID 8816)	1	no change	no change	0.13	-0.78
64	CHCHD10 (GeneID 400916)	1	no change (active)	CA1 (caspase activation)	-0.2	5.28
65	SPTAN1 (GeneID 6709)	1	no change	no change	1.18	-0.44
66	ENTPD8 (GeneID 377841)	1	no change	no change	1.23	-0.41
67	AKTIP (GeneID 64400)	1	no change	no change	0.46	-0.1
68	BMAL2 (GeneID 56938)	1	no change	no change	1.21	0.44
69	DEFB113 (GeneID 245927)	1	no change	no change	-0.6	-0.36
70	WDR82 (GeneID 80335)	1	no change	no change	0.74	-0.72
71	FASTKD3 (GeneID 79072)	1	no change	no change	0.21	-1.36
72	MCU (GeneID 90550)	1	no change	no change	-0.2	-1.07
73	SLC37A3 (GeneID 84255)	1	no change	no change	0.76	1.64
